Source: the supplement of paper PMC8728848
The other results are listed elsewhere or left out.

Key:
Assay in all cases: glycan array binding signal (z-score within array); higher = stronger binding
Details in all cases: glycan notation: IUPAC condensed, linker removed
[1] = molecular target: Fuc(a1-2)Gal(b1-4)GlcNAc(b1-3)Gal(b1-4)GlcNAc(b1-2)Man(a1-3)[Fuc(a1-2)Gal(b1-4)GlcNAc(b1-3)Gal(b1-4)GlcNAc(b1-2)Man(a1-6)]Man(b1-4)GlcNAc(b1-4)GlcNAc
Procedure, shortened: (§1)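 From the Consortium for Functional Glycomics database, 3228 arrays were curated, keeping only those whose protein sequence was available. Binding is given as a within-array Z-score averaged across arrays sharing a protein sequence and across linkers. Negative Z-scores can be read as non-binding.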

[2] = molecular target: Fuc(a1-2)Gal(b1-4)GlcNAc(b1-3)Gal(b1-4)GlcNAc(b1-3)Gal(b1-4)GlcNAc
Procedure, shortened: as §1

[3] = molecular target: Fuc(a1-2)Gal(b1-4)GlcNAc(b1-3)GalNAc
Procedure, shortened: as §1

[4] = molecular target: Fuc(a1-2)Gal(b1-4)GlcNAc(b1-3)[Fuc(a1-2)Gal(b1-4)GlcNAc(b1-6)]GalNAc
Procedure, shortened: as §1

[5] = molecular target: Fuc(a1-2)Gal(b1-4)GlcNAc(b1-3)[Fuc(a1-3)[Gal(b1-4)]GlcNAc(b1-6)]Gal(b1-4)Glc
Procedure, shortened: as §1

[6] = molecular target: Fuc(a1-2)Gal(b1-4)GlcNAc(b1-6)GalNAc
Procedure, shortened: as §1

[7] = molecular target: Fuc(a1-2)Gal(b1-4)GlcNAc6S
Procedure, shortened: as §1

[8] = molecular target: Fuc(a1-2)Gal(b1-4)[Fuc(a1-3)]GlcNAc
Procedure, shortened: as §1

[9] = molecular target: Fuc(a1-2)Gal(b1-4)[Fuc(a1-3)]GlcNAc(b1-2)Man(a1-3)[Fuc(a1-2)Gal(b1-4)[Fuc(a1-3)]GlcNAc(b1-2)Man(a1-6)]Man(b1-4)GlcNAc(b1-4)[Fuc(a1-6)]GlcNAc
Procedure, shortened: as §1

[10] = molecular target: Fuc(a1-2)Gal(b1-4)[Fuc(a1-3)]GlcNAc(b1-2)[Fuc(a1-2)Gal(b1-4)[Fuc(a1-3)]GlcNAc(b1-4)]Man(a1-3)[Fuc(a1-2)Gal(b1-4)[Fuc(a1-3)]GlcNAc(b1-2)Man(a1-6)]Man(b1-4)GlcNAc(b1-4)GlcNAc
Procedure, shortened: as §1

[11] = molecular target: Fuc(a1-2)Gal(b1-4)[Fuc(a1-3)]GlcNAc(b1-3)Gal(b1-4)[Fuc(a1-3)]GlcNAc
Procedure, shortened: as §1

[12] = molecular target: Fuc(a1-2)Gal(b1-4)[Fuc(a1-3)]GlcNAc(b1-3)Gal(b1-4)[Fuc(a1-3)]GlcNAc(b1-3)Gal(b1-4)[Fuc(a1-3)]GlcNAc
Procedure, shortened: as §1

[13] = molecular target: Fuc(a1-2)Gal(b1-4)[Fuc(a1-3)]GlcNAc(b1-3)GalNAc
Procedure, shortened: as §1

[14] = molecular target: Fuc(a1-2)Gal(b1-4)[Fuc(a1-3)]GlcNAc(b1-3)[Neu5Ac(a2-6)Gal(b1-4)GlcNAc(b1-6)]Gal(b1-4)Glc
Procedure, shortened: as §1

[15] = molecular target: Fuc(a1-2)Gal3S(b1-4)GlcNAc
Procedure, shortened: as §1

[16] = molecular target: Fuc(a1-2)Gal6S(b1-3)GlcNAc
Procedure, shortened: as §1

[17] = molecular target: Fuc(a1-2)Gal6S(b1-3)GlcNAc6S
Procedure, shortened: as §1

Fuc(a1-2)Gal6S(b1-4)Glc = molecular target: Fuc(a1-2)Gal6S(b1-4)Glc
Procedure, shortened: as §1

[18] = molecular target: Fuc(a1-2)Gal6S(b1-4)Glc6S
Procedure, shortened: as §1

Fuc(a1-2)[Gal(a1-3)]Gal = molecular target: Fuc(a1-2)[Gal(a1-3)]Gal
Procedure, shortened: as §1

[19] = molecular target: Fuc(a1-2)[Gal(a1-3)]Gal(b1-3)GalNAc
Procedure, shortened: as §1

[20] = molecular target: Fuc(a1-2)[Gal(a1-3)]Gal(b1-3)GalNAc(b1-3)Gal(a1-4)Gal(b1-4)Glc
Procedure, shortened: as §1

[21] = molecular target: Fuc(a1-2)[Gal(a1-3)]Gal(b1-3)GlcNAc
Procedure, shortened: as §1

[22] = molecular target: Fuc(a1-2)[Gal(a1-3)]Gal(b1-3)GlcNAc(b1-2)Man(a1-3)[Fuc(a1-2)[Gal(a1-3)]Gal(b1-3)GlcNAc(b1-2)Man(a1-6)]Man(b1-4)GlcNAc(b1-4)GlcNAc
Procedure, shortened: as §1

[23] = molecular target: Fuc(a1-2)[Gal(a1-3)]Gal(b1-3)GlcNAc(b1-2)Man(a1-3)[Fuc(a1-2)[Gal(a1-3)]Gal(b1-3)GlcNAc(b1-2)Man(a1-6)]Man(b1-4)GlcNAc(b1-4)[Fuc(a1-6)]GlcNAc
Procedure, shortened: as §1

[24] = molecular target: Fuc(a1-2)[Gal(a1-3)]Gal(b1-3)GlcNAc(b1-3)GalNAc
Procedure, shortened: as §1

[25] = molecular target: Fuc(a1-2)[Gal(a1-3)]Gal(b1-3)GlcNAc(b1-6)GalNAc
Procedure, shortened: as §1

[26] = molecular target: Fuc(a1-2)[Gal(a1-3)]Gal(b1-4)Glc
Procedure, shortened: as §1

[27] = molecular target: Fuc(a1-2)[Gal(a1-3)]Gal(b1-4)GlcNAc
Procedure, shortened: as §1

[28] = molecular target: Fuc(a1-2)[Gal(a1-3)]Gal(b1-4)GlcNAc(b1-2)Man
Procedure, shortened: as §1

B1: BT4246 (Bacteroides thetaiotaomicron), Q89ZX5 (protein)
chain: MGSSHHHHHHENLYFQGHMASDYLDVVPPEQPNIDDAMSSPTRALGFLYSCYGGVSTDLPSAYLGEINSTTDEYVLPYSWNTDGYWGAYAFNTASSTNQDWLWGTTYQYIGQCYLFLQKLENAGSDIASDAEKEQWRAECQFLVAYYHFATLRRYGPIPITDSYIPMDTPTSEYNGRFHFDYCVDWIANQLDEAAKVLPANRTVTNEWGRATSTIAKAVKARLLLYAASPLWNGSFPYPNWQNENFETPGYGKALVSNTYDKSKWERALAACQEALTLATTSGDRELYDDDEYYSRQSLNLPFVPGVADVEDNKEFLKNVMKMRYAVSTRESEGNKEIIWGLSNQFDFYSRYPLRILKKSDGTWHAGYSGVSPTLYTFEHFYTANGKLPEKDLDFTPSSEWFESAGISSREDIIKLNVGREPRFYAWMAFDGGDYGTKFAAGSPLKLEMRNSEMHGYNPSLFNRDHSVTGFLTQKFVDPVTEFYTAGGSTSGTSAPTILFRLAELYLNVAECHAALGNTQEAIDALNPVRERAGIPKLTLADITNNMTIKDWVHNERFVELWNEGHRFFDVRRWAEGAKYFGANKREGLNAEVQSPTFEEFNKRTTVDAPYVWENRMYLNPVFYNEVYKNPQMVQAPGY
glycan array binding signal (z-score) [1]: 0.084 | glycan array binding signal (z-score) [2]: 0.368 | glycan array binding signal (z-score) [3]: 1.95 | glycan array binding signal (z-score) [4]: -1.4 | glycan array binding signal (z-score) [5]: 1.17 | glycan array binding signal (z-score) [6]: -0.332 | glycan array binding signal (z-score) [7]: -1.28 | glycan array binding signal (z-score) [8]: -1.11 | glycan array binding signal (z-score) [9]: -0.552 | glycan array binding signal (z-score) [10]: 0.285 | glycan array binding signal (z-score) [11]: -0.218 | glycan array binding signal (z-score) [12]: -0.37 | glycan array binding signal (z-score) [13]: -0.125 | glycan array binding signal (z-score) [14]: 0.068 | glycan array binding signal (z-score) [15]: -0.268 | glycan array binding signal (z-score) [16]: 1.75 | glycan array binding signal (z-score) [17]: -0.889 | glycan array binding signal (z-score) (Fuc(a1-2)Gal6S(b1-4)Glc): 0.64 | glycan array binding signal (z-score) [18]: -1.65 | glycan array binding signal (z-score) (Fuc(a1-2)[Gal(a1-3)]Gal): -0.193 | glycan array binding signal (z-score) [19]: 0.803 | glycan array binding signal (z-score) [20]: -0.117 | glycan array binding signal (z-score) [21]: -0.528 | glycan array binding signal (z-score) [22]: 1.31 | glycan array binding signal (z-score) [23]: 0.113 | glycan array binding signal (z-score) [24]: -0.267 | glycan array binding signal (z-score) [25]: 0.604 | glycan array binding signal (z-score) [26]: -0.388 | glycan array binding signal (z-score) [27]: -0.986 | glycan array binding signal (z-score) [28]: -0.872
